# From patent US20230310573A1, “Stabilized Vaccine Compositions” (priority 2020, published 2023)
# Target: T1, RSV pre-fusion F protein of SEQ ID NO: 10 (Human respiratory syncytial virus A, UniProt P03420, D486N/DEL108-136/I379V/M447V/N67I/P102A/S215P)
# T1 construct: made in house
# Assay type: physicochemical
# Description: The RSV pre-fusion F protein of SEQ ID NO: 10 was diluted to 0.3 mg/ml in phosphate buffer (Formulation 1) and 0.75 ml was filled in glass injection vials with rubber stopper and sealed with aluminum caps. Additionally, protein was diluted in the formulation buffers with inhibitor in a 1:3 trimer:compound ratio. One inhibitor binds one trimer so with a 1:3 ratio there is an excess of inhibitor. […] In 24 hours, samples were cooled down from RT to −70° C. Samples were thawed to RT and analyzed by analytical Size Exclusion Chromatography (SEC) to measure loss of RSV F trimer.
# 0.75 ml of each formulation was filled in glass injection vials with rubber stopper and sealed with aluminum caps. Additionally, protein was diluted in the formulation buffers and inhibitor was added in a 1:1, 1:3, 1:9, 1:27 and 1:50 trimer: compound ratio. Final compound concentrations were 1.7×10^−6 M, 5.2×10^−6 M, 1.6×10^−5M, 4.6×10^−5, and 8.6×10^−5 M, respectively. Vials were slowly frozen to −70° C. in 24 hours. Samples were subsequently thawed to RT and analyzed by analytical Size Exclusion Chromatography (SEC) to measure loss of RSV F trimer compared the sample that was kept at 4° C.
smiles,measurement,value
"Cc1ccc(CCCO)c(NCc2ccc3nc(NCCCN4CCOCC4)n(Cc4nc(C)ccc4O)c3c2)c1 [Compound I, 2-[[6-[[2-(3-hydroxypropyl)-5-methyl-anilino]methyl]-2-(3-morpholinopropylamino)benzimidazol-1-yl]methyl]-6-methyl-pyridin-3-ol]",aggregation after slow freeze,no aggregations were observed
same,trimer % after slow freeze with compound vs without,higher trimer %
